# Some of the results follow.
# Columns and labels:
# Experiment in all cases: glycan array binding signal (z-score within array); higher = stronger binding
# Settings in all cases: glycan notation: IUPAC condensed, linker removed
# [1] = target: Neu5Ac(a2-3)Gal(b1-4)GlcNAc(b1-6)GalNAc
# Outline: (§1)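 The binding signal is a Z-score computed within each array and averaged over linkers. Arrays of the same protein sequence at different concentrations or buffers were also averaged together. Data originate from 3228 arrays in the Consortium for Functional Glycomics database, kept only where the protein sequence was available.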
# [2] = target: Neu5Ac(a2-3)Gal(b1-4)GlcNAc(b1-6)[Gal(b1-3)]GalNAc
# Outline: as §1
# [3] = target: Neu5Ac(a2-3)Gal(b1-4)GlcNAc(b1-6)[Neu5Ac(a2-3)Gal(b1-3)]GalNAc
# Outline: as §1
# [4] = target: Neu5Ac(a2-3)Gal(b1-4)GlcNAc6S
# Outline: as §1
# [5] = target: Neu5Ac(a2-3)Gal(b1-4)[Fuc(a1-3)]GlcNAc
# Outline: as §1
# [6] = target: Neu5Ac(a2-3)Gal(b1-4)[Fuc(a1-3)]GlcNAc(b1-2)Man
# Outline: as §1
# [7] = target: Neu5Ac(a2-3)Gal(b1-4)[Fuc(a1-3)]GlcNAc(b1-3)Gal
# Outline: as §1
# [8] = target: Neu5Ac(a2-3)Gal(b1-4)[Fuc(a1-3)]GlcNAc(b1-3)Gal(b1-4)GlcNAc
# Outline: as §1
# [9] = target: Neu5Ac(a2-3)Gal(b1-4)[Fuc(a1-3)]GlcNAc(b1-3)Gal(b1-4)[Fuc(a1-3)]GlcNAc(b1-3)Gal(b1-4)[Fuc(a1-3)]GlcNAc
# Outline: as §1
# [10] = target: Neu5Ac(a2-3)Gal(b1-4)[Fuc(a1-3)]GlcNAc(b1-3)GalNAc
# Outline: as §1
# [11] = target: Neu5Ac(a2-3)Gal(b1-4)[Fuc(a1-3)]GlcNAc(b1-6)[Gal(b1-3)]GalNAc
# Outline: as §1
# [12] = target: Neu5Ac(a2-3)Gal(b1-4)[Fuc(a1-3)]GlcNAc(b1-6)[Neu5Ac(a2-3)Gal(b1-3)]GalNAc
# Outline: as §1
# [13] = target: Neu5Ac(a2-3)Gal(b1-4)[Fuc(a1-3)]GlcNAc6S
# Outline: as §1
# [14] = target: Neu5Ac(a2-3)Gal6S(b1-4)GlcNAc
# Outline: as §1
# [15] = target: Neu5Ac(a2-3)Gal6S(b1-4)[Fuc(a1-3)]GlcNAc
# Outline: as §1
# Neu5Ac(a2-3)GalNAc = target: Neu5Ac(a2-3)GalNAc
# Outline: as §1
# [16] = target: Neu5Ac(a2-3)GalNAc(b1-4)GlcNAc
# Outline: as §1
# [17] = target: Neu5Ac(a2-3)[GalNAc(b1-4)]Gal(b1-4)Glc
# Outline: as §1
# [18] = target: Neu5Ac(a2-3)[GalNAc(b1-4)]Gal(b1-4)GlcNAc
# Outline: as §1
# [19] = target: Neu5Ac(a2-3)[GalNAc(b1-4)]Gal(b1-4)GlcNAc(b1-3)GalNAc
# Outline: as §1
# [20] = target: Neu5Ac(a2-3)[Neu5Ac(a2-6)]GalNAc
# Outline: as §1
# Neu5Ac(a2-6)Gal = target: Neu5Ac(a2-6)Gal
# Outline: as §1
# [21] = target: Neu5Ac(a2-6)Gal(b1-3)GlcNAc(b1-3)[Gal(b1-4)GlcNAc(b1-6)]Gal(b1-4)Glc
# Outline: as §1
# Neu5Ac(a2-6)Gal(b1-4)Glc = target: Neu5Ac(a2-6)Gal(b1-4)Glc
# Outline: as §1
# [22] = target: Neu5Ac(a2-6)Gal(b1-4)GlcNAc
# Outline: as §1
# [23] = target: Neu5Ac(a2-6)Gal(b1-4)GlcNAc(b1-2)Man
# Outline: as §1
# [24] = target: Neu5Ac(a2-6)Gal(b1-4)GlcNAc(b1-2)Man(a1-3)Man(b1-4)GlcNAc(b1-4)GlcNAc
# Outline: as §1
# [25] = target: Neu5Ac(a2-6)Gal(b1-4)GlcNAc(b1-2)Man(a1-3)[Gal(b1-4)GlcNAc(b1-2)Man(a1-6)]Man(b1-4)GlcNAc(b1-4)GlcNAc
# Outline: as §1
# [26] = target: Neu5Ac(a2-6)Gal(b1-4)GlcNAc(b1-2)Man(a1-3)[GlcNAc(b1-2)Man(a1-6)]Man(b1-4)GlcNAc(b1-4)GlcNAc
# Outline: as §1
# [27] = target: Neu5Ac(a2-6)Gal(b1-4)GlcNAc(b1-2)Man(a1-3)[GlcNAc(b1-4)][Neu5Ac(a2-6)Gal(b1-4)GlcNAc(b1-2)Man(a1-6)]Man(b1-4)GlcNAc(b1-4)GlcNAc
# Outline: as §1
# [28] = target: Neu5Ac(a2-6)Gal(b1-4)GlcNAc(b1-2)Man(a1-3)[Man(a1-6)]Man(b1-4)GlcNAc(b1-4)GlcNAc
# Outline: as §1
# [29] = target: Neu5Ac(a2-6)Gal(b1-4)GlcNAc(b1-2)Man(a1-3)[Neu5Ac(a2-3)Gal(b1-4)GlcNAc(b1-2)Man(a1-6)]Man(b1-4)GlcNAc(b1-4)GlcNAc
# Outline: as §1
# [30] = target: Neu5Ac(a2-6)Gal(b1-4)GlcNAc(b1-2)Man(a1-3)[Neu5Ac(a2-6)Gal(b1-4)GlcNAc(b1-2)Man(a1-6)]Man(b1-4)GlcNAc(b1-4)GlcNAc
# Outline: as §1
# [31] = target: Neu5Ac(a2-6)Gal(b1-4)GlcNAc(b1-2)Man(a1-3)[Neu5Ac(a2-6)Gal(b1-4)GlcNAc(b1-2)Man(a1-6)]Man(b1-4)GlcNAc(b1-4)[Fuc(a1-6)]GlcNAc
# Outline: as §1
# [32] = target: Neu5Ac(a2-6)Gal(b1-4)GlcNAc(b1-2)Man(a1-6)Man(b1-4)GlcNAc(b1-4)GlcNAc
# Outline: as §1
# [33] = target: Neu5Ac(a2-6)Gal(b1-4)GlcNAc(b1-2)Man(a1-6)[Gal(b1-4)GlcNAc(b1-2)Man(a1-3)]Man(b1-4)GlcNAc(b1-4)GlcNAc
# Outline: as §1
# [34] = target: Neu5Ac(a2-6)Gal(b1-4)GlcNAc(b1-2)Man(a1-6)[GlcNAc(b1-2)Man(a1-3)]Man(b1-4)GlcNAc(b1-4)GlcNAc
# Outline: as §1
# [35] = target: Neu5Ac(a2-6)Gal(b1-4)GlcNAc(b1-2)Man(a1-6)[Man(a1-3)]Man(b1-4)GlcNAc(b1-4)GlcNAc
# Outline: as §1
# [36] = target: Neu5Ac(a2-6)Gal(b1-4)GlcNAc(b1-2)[Neu5Ac(a2-6)Gal(b1-4)GlcNAc(b1-4)]Man(a1-3)[GlcNAc(b1-4)][Neu5Ac(a2-6)Gal(b1-4)GlcNAc(b1-2)[Neu5Ac(a2-6)Gal(b1-4)GlcNAc(b1-6)]Man(a1-6)]Man(b1-4)GlcNAc(b1-4)GlcNAc
# Outline: as §1
# [37] = target: Neu5Ac(a2-6)Gal(b1-4)GlcNAc(b1-2)[Neu5Ac(a2-6)Gal(b1-4)GlcNAc(b1-4)]Man(a1-3)[GlcNAc(b1-4)][Neu5Ac(a2-6)Gal(b1-4)GlcNAc(b1-4)Man(a1-6)]Man(b1-4)GlcNAc(b1-4)GlcNAc
# Outline: as §1
# [38] = target: Neu5Ac(a2-6)Gal(b1-4)GlcNAc(b1-2)[Neu5Ac(a2-6)Gal(b1-4)GlcNAc(b1-6)]Man(a1-6)[Neu5Ac(a2-6)Gal(b1-4)GlcNAc(b1-2)Man(a1-3)][GlcNAc(b1-4)]Man(b1-4)GlcNAc(b1-4)GlcNAc
# Outline: as §1
# [39] = target: Neu5Ac(a2-6)Gal(b1-4)GlcNAc(b1-3)Gal(b1-3)GlcNAc
# Outline: as §1
# [40] = target: Neu5Ac(a2-6)Gal(b1-4)GlcNAc(b1-3)Gal(b1-4)GlcNAc
# Outline: as §1
# [41] = target: Neu5Ac(a2-6)Gal(b1-4)GlcNAc(b1-3)Gal(b1-4)GlcNAc(b1-2)Man(a1-3)[Neu5Ac(a2-6)Gal(b1-4)GlcNAc(b1-3)Gal(b1-4)GlcNAc(b1-2)Man(a1-6)]GalNAc
# Outline: as §1
# [42] = target: Neu5Ac(a2-6)Gal(b1-4)GlcNAc(b1-3)Gal(b1-4)GlcNAc(b1-3)Gal(b1-4)GlcNAc
# Outline: as §1
# [43] = target: Neu5Ac(a2-6)Gal(b1-4)GlcNAc(b1-3)Gal(b1-4)GlcNAc(b1-3)Gal(b1-4)GlcNAc(b1-2)Man(a1-3)[Neu5Ac(a2-6)Gal(b1-4)GlcNAc(b1-3)Gal(b1-4)GlcNAc(b1-3)Gal(b1-4)GlcNAc(b1-2)Man(a1-6)]GalNAc
# Outline: as §1
binder,measurement,setting,value
GS7807I-bvu-563-22-563 (Bacteroides vulgatus) (protein) IFSSCTDDFEKLNTSNIQVDPADLPFAAQCTEPMTYCYPPQQNMFQFWTNLTIDLYGGYFMTPNGNFTNGDMGENRGHSGGMYENYYLHIFNNTRRIIAQCDASGERGLSGVMRIVQAYGTLMTTDAYGPIPYSSILSGENEVYFEFDSQKDLYKAMLEDLSTAITDISAMGADEIAKLKSFDCWCNGDKDLWVKIANTMKLRMALRLSKRETEAGNAGMNLKAIATEAAQNTLATVNKDILIDKSLENEMWLMFNWGDCGFNANLVTIMSGTKDPRQPLYMTLNTGDIKNEAGTTTVAANSQYLGIRFASGLPAKPNSWGNFSGWIQGNNGSSYSMPLPIMKAAEAYFLLAEAKLRWDIGSESVKNLYENGIRVSMTNELAYRGAYAGIKEYPEGAVDAYINGTSTQIDYTDPIKAELSTPAVNKLSVKWDESASNEEKLERIITQKWLALFPLSTEGWAEQRRTGYPRFFPAFVNESNGAVNTEEGVRRVIYSSQAYDANAKGVEGGIKLLDEENSSKFGISGDKGGTHLWWDNADKGNF,glycan array binding signal (z-score),[1],-1.69
same,glycan array binding signal (z-score),[2],-1.16
same,glycan array binding signal (z-score),[3],-0.221
same,glycan array binding signal (z-score),[4],-0.432
same,glycan array binding signal (z-score),[5],-0.663
same,glycan array binding signal (z-score),[6],0.586
same,glycan array binding signal (z-score),[7],-0.291
same,glycan array binding signal (z-score),[8],-0.977
same,glycan array binding signal (z-score),[9],-1.54
same,glycan array binding signal (z-score),[10],5.03
same,glycan array binding signal (z-score),[11],0.973
same,glycan array binding signal (z-score),[12],-0.487
same,glycan array binding signal (z-score),[13],-1.46
same,glycan array binding signal (z-score),[14],-1.61
same,glycan array binding signal (z-score),[15],-1.45
same,glycan array binding signal (z-score),Neu5Ac(a2-3)GalNAc,-0.657
same,glycan array binding signal (z-score),[16],-1.11
same,glycan array binding signal (z-score),[17],-1.14
same,glycan array binding signal (z-score),[18],-1.37
same,glycan array binding signal (z-score),[19],-0.207
same,glycan array binding signal (z-score),[20],1.18
same,glycan array binding signal (z-score),Neu5Ac(a2-6)Gal,-0.538
same,glycan array binding signal (z-score),[21],-0.463
same,glycan array binding signal (z-score),Neu5Ac(a2-6)Gal(b1-4)Glc,-0.793
same,glycan array binding signal (z-score),[22],1.17
same,glycan array binding signal (z-score),[23],0.02
same,glycan array binding signal (z-score),[24],-0.731
same,glycan array binding signal (z-score),[25],-1.77
same,glycan array binding signal (z-score),[26],-1.35
same,glycan array binding signal (z-score),[27],1.15
same,glycan array binding signal (z-score),[28],0.155
same,glycan array binding signal (z-score),[29],-0.764
same,glycan array binding signal (z-score),[30],-0.162
same,glycan array binding signal (z-score),[31],1.45
same,glycan array binding signal (z-score),[32],-0.32
same,glycan array binding signal (z-score),[33],1.71
same,glycan array binding signal (z-score),[34],-0.815
same,glycan array binding signal (z-score),[35],-1.07
same,glycan array binding signal (z-score),[36],-1.34
same,glycan array binding signal (z-score),[37],1.24
same,glycan array binding signal (z-score),[38],-0.415
same,glycan array binding signal (z-score),[39],-0.945
same,glycan array binding signal (z-score),[40],-0.234
same,glycan array binding signal (z-score),[41],-0.168
same,glycan array binding signal (z-score),[42],-0.509
same,glycan array binding signal (z-score),[43],0.3

# Pulled one by one from the entries so far, 3 records:
binder,measurement,setting,value
GS7807I-bvu-563-22-563 (Bacteroides vulgatus) (protein) IFSSCTDDFEKLNTSNIQVDPADLPFAAQCTEPMTYCYPPQQNMFQFWTNLTIDLYGGYFMTPNGNFTNGDMGENRGHSGGMYENYYLHIFNNTRRIIAQCDASGERGLSGVMRIVQAYGTLMTTDAYGPIPYSSILSGENEVYFEFDSQKDLYKAMLEDLSTAITDISAMGADEIAKLKSFDCWCNGDKDLWVKIANTMKLRMALRLSKRETEAGNAGMNLKAIATEAAQNTLATVNKDILIDKSLENEMWLMFNWGDCGFNANLVTIMSGTKDPRQPLYMTLNTGDIKNEAGTTTVAANSQYLGIRFASGLPAKPNSWGNFSGWIQGNNGSSYSMPLPIMKAAEAYFLLAEAKLRWDIGSESVKNLYENGIRVSMTNELAYRGAYAGIKEYPEGAVDAYINGTSTQIDYTDPIKAELSTPAVNKLSVKWDESASNEEKLERIITQKWLALFPLSTEGWAEQRRTGYPRFFPAFVNESNGAVNTEEGVRRVIYSSQAYDANAKGVEGGIKLLDEENSSKFGISGDKGGTHLWWDNADKGNF,glycan array binding signal (z-score),[27],1.15
same,glycan array binding signal (z-score),[28],0.155
same,glycan array binding signal (z-score),[17],-1.14
